This is one part of the list.
Compound: COc1ccc(Cn2ccc3cc(C)c(C(=O)NO)cc32)cc1
Experiment: dose-dependent thermal stabilisation call (2D-TPP, DLPTP, 10% FDR) (binary (1 = stabilised)); higher = stabilised by the compound
Settings: system: HL-60 intact cells; concentration range 0.04-10 µM
Procedure: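 2D thermal proteome profiling in intact HL-60 cells treated with BRD-3811 (0, 0.04, 0.29, 2, 10 uM) for 90 min at 37 C, then heated 3 min at one of 12 temperatures (42-63.9 C). Soluble protein was quantified by TMT10 MS. The value is the DLPTP call of the paper: dose-dependent thermal stabilisation over all temperatures at 10% FDR (F-test of a dose-response against a flat model); one experiment, one call per tested protein.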

By UniProt entry, the sequences of proteins in these tests, tags left out. Where a name states a change or a piece, a line headed by the entry shows the natural chain unless it says otherwise.
UniProt Q9Y2L5: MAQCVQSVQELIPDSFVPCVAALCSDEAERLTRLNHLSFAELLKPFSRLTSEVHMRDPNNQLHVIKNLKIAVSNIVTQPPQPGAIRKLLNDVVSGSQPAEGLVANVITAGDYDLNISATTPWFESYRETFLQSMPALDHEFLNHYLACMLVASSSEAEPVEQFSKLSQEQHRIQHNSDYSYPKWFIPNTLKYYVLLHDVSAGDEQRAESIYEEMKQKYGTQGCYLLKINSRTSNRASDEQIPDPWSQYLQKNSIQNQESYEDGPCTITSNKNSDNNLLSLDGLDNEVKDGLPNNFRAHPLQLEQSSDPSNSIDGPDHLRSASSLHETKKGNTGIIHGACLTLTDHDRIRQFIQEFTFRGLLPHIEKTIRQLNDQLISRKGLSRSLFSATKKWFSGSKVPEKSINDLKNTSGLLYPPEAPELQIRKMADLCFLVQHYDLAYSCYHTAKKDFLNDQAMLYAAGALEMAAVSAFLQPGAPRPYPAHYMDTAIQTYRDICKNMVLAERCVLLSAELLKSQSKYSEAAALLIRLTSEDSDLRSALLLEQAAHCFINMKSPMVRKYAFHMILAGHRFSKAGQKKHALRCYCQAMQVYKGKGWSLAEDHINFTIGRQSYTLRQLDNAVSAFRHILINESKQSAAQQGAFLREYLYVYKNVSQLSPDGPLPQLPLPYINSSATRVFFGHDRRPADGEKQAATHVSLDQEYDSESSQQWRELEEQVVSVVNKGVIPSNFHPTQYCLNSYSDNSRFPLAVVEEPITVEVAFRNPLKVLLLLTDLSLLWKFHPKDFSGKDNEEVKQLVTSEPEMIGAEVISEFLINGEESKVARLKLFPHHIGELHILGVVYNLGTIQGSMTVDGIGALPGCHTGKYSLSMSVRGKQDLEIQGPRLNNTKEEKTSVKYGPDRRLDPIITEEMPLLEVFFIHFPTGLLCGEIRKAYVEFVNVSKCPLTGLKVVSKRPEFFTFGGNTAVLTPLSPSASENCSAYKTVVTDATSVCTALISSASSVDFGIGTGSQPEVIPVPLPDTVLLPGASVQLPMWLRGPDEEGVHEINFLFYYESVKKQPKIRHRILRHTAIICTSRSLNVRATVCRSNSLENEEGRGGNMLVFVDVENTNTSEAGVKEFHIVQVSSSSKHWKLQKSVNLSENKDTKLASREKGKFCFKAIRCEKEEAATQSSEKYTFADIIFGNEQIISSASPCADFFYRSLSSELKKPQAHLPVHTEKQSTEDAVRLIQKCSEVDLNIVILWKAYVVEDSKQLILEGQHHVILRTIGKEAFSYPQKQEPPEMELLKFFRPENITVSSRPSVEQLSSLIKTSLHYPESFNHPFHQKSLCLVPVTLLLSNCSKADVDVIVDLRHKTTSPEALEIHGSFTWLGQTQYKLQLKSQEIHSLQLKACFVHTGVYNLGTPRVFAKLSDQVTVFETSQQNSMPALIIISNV
UniProt P24390: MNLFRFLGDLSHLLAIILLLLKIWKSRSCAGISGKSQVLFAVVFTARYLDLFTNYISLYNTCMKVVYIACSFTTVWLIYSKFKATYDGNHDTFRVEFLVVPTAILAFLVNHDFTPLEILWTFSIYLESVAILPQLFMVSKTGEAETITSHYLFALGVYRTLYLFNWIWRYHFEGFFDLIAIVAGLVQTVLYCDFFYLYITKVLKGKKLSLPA
UniProt Q96A73: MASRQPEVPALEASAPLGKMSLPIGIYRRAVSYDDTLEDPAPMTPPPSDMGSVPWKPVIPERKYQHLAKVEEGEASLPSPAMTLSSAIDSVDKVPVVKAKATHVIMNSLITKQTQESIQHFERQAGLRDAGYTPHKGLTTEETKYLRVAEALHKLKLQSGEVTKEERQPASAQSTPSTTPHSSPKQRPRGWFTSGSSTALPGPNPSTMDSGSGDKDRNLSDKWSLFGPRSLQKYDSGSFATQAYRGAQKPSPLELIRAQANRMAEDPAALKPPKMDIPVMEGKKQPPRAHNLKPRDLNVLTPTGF
UniProt Q96HW7, whole entry: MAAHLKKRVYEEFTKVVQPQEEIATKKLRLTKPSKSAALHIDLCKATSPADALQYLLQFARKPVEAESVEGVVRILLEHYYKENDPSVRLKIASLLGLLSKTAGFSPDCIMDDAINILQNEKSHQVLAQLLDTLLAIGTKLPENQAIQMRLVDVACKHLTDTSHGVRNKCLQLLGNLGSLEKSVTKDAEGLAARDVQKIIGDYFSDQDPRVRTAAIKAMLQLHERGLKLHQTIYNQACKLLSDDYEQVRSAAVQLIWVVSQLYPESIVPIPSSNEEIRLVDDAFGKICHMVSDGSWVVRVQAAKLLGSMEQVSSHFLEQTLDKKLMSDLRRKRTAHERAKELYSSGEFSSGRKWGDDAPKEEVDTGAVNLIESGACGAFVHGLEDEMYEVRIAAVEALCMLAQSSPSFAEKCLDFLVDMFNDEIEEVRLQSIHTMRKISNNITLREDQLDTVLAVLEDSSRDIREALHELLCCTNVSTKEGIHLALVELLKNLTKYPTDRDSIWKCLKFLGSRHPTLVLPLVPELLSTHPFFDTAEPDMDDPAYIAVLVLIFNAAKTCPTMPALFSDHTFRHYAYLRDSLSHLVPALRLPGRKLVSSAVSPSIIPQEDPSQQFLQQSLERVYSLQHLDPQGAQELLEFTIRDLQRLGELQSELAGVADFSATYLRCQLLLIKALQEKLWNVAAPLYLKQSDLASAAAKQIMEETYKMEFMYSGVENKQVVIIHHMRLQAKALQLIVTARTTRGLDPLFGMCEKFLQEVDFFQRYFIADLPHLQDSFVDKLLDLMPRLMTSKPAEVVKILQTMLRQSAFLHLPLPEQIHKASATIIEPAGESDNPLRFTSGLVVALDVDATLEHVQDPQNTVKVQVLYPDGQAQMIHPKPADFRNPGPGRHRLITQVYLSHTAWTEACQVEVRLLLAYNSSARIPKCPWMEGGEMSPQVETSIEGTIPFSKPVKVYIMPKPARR
UniProt Q5T011: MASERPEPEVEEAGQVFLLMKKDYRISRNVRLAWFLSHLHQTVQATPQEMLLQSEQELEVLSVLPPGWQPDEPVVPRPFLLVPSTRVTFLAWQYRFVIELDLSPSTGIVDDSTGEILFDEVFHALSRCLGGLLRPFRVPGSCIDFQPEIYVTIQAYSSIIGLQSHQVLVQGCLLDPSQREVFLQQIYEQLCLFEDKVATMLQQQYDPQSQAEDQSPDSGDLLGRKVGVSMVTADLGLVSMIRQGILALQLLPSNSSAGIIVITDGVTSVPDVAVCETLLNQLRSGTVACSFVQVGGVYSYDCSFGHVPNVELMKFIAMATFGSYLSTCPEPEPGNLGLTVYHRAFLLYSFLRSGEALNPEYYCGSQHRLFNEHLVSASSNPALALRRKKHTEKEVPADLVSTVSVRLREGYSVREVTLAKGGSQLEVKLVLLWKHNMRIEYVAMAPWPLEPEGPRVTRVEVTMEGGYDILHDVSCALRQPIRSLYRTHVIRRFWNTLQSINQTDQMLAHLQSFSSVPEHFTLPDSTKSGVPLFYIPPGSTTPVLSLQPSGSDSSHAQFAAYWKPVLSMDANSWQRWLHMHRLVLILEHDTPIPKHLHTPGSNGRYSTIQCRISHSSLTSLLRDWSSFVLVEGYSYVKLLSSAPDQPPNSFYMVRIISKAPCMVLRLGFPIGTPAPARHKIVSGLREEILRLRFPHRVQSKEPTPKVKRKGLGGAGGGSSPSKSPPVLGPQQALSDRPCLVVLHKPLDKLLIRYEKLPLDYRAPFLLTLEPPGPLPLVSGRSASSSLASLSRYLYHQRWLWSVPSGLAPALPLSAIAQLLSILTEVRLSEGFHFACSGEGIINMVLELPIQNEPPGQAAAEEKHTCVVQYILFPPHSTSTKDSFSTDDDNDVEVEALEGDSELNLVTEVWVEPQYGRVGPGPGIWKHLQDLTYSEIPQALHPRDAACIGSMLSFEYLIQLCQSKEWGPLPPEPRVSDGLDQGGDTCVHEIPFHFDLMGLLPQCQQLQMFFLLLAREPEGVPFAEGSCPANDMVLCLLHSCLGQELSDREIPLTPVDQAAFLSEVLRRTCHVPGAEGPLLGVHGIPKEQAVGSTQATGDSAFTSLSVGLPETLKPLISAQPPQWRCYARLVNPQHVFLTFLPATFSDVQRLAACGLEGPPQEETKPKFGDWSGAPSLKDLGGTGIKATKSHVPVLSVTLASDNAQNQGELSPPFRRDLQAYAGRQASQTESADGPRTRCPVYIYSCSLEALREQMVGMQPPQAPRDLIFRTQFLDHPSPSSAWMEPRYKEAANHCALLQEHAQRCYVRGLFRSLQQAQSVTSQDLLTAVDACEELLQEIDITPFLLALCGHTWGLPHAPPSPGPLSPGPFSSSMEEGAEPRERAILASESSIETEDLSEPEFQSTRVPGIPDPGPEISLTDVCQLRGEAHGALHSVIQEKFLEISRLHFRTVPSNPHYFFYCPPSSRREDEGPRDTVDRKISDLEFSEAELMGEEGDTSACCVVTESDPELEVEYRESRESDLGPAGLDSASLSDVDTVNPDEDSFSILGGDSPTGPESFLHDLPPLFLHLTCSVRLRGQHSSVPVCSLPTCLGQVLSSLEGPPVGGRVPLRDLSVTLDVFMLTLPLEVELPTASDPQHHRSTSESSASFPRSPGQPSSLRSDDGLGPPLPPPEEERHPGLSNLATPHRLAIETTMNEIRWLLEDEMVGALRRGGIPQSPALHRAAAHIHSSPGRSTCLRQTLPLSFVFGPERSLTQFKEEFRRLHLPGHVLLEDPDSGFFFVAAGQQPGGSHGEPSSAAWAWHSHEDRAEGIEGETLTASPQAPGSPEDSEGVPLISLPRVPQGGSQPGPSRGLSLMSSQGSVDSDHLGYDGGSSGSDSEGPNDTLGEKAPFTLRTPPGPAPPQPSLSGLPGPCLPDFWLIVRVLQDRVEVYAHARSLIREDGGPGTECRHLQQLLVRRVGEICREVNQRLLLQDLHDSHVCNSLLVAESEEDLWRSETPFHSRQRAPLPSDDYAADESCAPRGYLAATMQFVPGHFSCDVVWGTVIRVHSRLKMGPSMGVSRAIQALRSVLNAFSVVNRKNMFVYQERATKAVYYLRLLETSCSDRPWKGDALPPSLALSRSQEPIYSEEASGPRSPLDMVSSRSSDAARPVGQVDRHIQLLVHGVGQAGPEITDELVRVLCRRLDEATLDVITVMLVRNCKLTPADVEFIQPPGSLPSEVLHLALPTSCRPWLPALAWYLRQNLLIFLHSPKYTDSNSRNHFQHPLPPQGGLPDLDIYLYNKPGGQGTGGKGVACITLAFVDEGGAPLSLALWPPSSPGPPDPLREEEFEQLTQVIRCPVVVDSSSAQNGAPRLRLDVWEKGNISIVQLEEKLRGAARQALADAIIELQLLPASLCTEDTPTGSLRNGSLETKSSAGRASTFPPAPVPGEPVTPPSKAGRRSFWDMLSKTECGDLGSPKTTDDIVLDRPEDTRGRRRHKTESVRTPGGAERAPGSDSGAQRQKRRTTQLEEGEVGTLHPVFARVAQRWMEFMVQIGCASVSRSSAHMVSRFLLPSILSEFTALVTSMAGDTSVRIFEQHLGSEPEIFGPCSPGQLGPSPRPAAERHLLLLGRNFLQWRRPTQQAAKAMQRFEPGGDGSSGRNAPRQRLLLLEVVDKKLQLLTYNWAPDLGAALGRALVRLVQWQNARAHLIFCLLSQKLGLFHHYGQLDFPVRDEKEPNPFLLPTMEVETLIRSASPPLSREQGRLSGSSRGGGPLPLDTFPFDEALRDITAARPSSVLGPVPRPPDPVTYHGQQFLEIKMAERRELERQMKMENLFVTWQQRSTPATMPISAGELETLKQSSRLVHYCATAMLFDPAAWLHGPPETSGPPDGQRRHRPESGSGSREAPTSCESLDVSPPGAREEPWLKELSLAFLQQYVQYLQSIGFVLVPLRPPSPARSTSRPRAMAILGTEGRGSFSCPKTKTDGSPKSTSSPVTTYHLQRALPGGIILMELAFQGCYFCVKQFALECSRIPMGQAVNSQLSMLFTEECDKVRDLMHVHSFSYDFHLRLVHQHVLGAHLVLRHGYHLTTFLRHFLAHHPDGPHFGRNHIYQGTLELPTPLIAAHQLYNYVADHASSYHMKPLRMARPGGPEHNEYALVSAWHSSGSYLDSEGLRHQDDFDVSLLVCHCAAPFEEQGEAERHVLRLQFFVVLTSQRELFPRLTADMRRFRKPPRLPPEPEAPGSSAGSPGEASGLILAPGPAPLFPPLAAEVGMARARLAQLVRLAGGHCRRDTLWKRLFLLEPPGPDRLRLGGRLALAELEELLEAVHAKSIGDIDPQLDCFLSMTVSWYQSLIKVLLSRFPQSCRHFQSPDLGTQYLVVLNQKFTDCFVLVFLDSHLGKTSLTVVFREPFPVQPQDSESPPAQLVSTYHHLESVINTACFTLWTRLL

Target | dose-dependent thermal stabilisation call
KIAA1797 (UniProt Q5VW36) | inactive: 0
KIAA1012 (UniProt Q9Y2L5) | inactive: 0
ITPR1 (UniProt Q14643) | inactive: 0
IQGAP1 (UniProt P46940) | inactive: 0
KANK1 (UniProt Q14678) | inactive: 0
INF2 (UniProt Q27J81) | inactive: 0
IFI30 (UniProt P13284) | inactive: 0
KIAA0922 (UniProt A2VDJ0) | inactive: 0
JUN (UniProt P05412) | inactive: 0
KIAA1147 (UniProt A4D1U4) | inactive: 0
HSPH1 (UniProt Q92598) | inactive: 0
KIAA0100 (UniProt Q14667) | inactive: 0
IWS1 (UniProt Q96ST2) | inactive: 0
ITPRIP (UniProt Q8IWB1) | inactive: 0
IQGAP2 (UniProt Q13576) | inactive: 0
IRF3 (UniProt Q14653) | inactive: 0
KPNA1 (UniProt P52294) | inactive: 0
KLHL9 (UniProt Q9P2J3) | inactive: 0
KCTD15 (UniProt Q96SI1) | inactive: 0
ICMT (UniProt O60725) | inactive: 0
KDELR1 (UniProt P24390) | inactive: 0
ITGB1 (UniProt P05556) | inactive: 0
KIAA1191 (UniProt Q96A73) | inactive: 0
IMMT (UniProt Q16891) | inactive: 0
INTS4 (UniProt Q96HW7) | inactive: 0
KIAA0467 (UniProt Q5T011) | inactive: 0

2 entries picked at random from the list so far:
Target | dose-dependent thermal stabilisation call
ITPR1 (UniProt Q14643) | inactive: 0
KIAA1012 (UniProt Q9Y2L5) | inactive: 0

— the supplement of paper PMC7666118
